Measurements reported in PubChem BioAssay AID504764 (Drosophila RNAi Screening Center, 2011)
Aim: 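Knock-downs that raise or lower a Notch target reporter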 (primary screen). Cells: Drosophila Kc167 cells. Reagent: long dsRNA against Drosophila genes. Timing: about 5 days (4 days dsRNA, then 24 h after transfection). Treatment: transfection of constitutively active membrane-tethered Notch lacking the extracellular domain, read 24 h later. Detection: 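Firefly luciferase from an E(spl)m3 reporter with active Notch, plus control-promoter and uninduced reporter wells for normalisation; unnormalised counts, duplicate wells a and b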. Reading the numbers: induced reporter light, run 1, well a and induced reporter light, run 1, well b: higher = more light from the Notch target reporter with active Notch; control promoter light, run 1, well a and control promoter light, run 1, well b: higher = more light from the viral control promoter (cell number, transfection, viability); uninduced reporter light, run 1, well a: higher = more light from the Notch target reporter without active Notch. Hit rule: 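Hit if the duplicate-averaged log2 ratio of induced to control-promoter light gives a plate-wise z beyond ±2, or induced to uninduced beyond ±1.8; weak-control or discordant-duplicate wells dropped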. Calls: active = modifier hit (raised or lowered Notch signal); inactive = not a hit.
The screen tested about 22,000 reagents; shown is a random part of those that have a named target and a result. Of all reagents, 403 (1.9%) are marked active. 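Unnormalised raw counts per well; ratio z-scores behind the hit calls and whether each hit raises or lowers signal are not deposited.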 Unmarked entries are inactive. Reagents against one gene are numbered here. A plus sign joins genes that one reagent is predicted to hit. Not given: the amount of reagent.

target,reagent,"induced reporter light, run 1, well a","induced reporter light, run 1, well b","control promoter light, run 1, well a","control promoter light, run 1, well b","uninduced reporter light, run 1, well a"
CG31688,1,62620,41710,43930,40980,3645
CG12702,1,75160,79435,70895,85970,8805
Ir7e (Ionotropic receptor 7e),1,1.88e5,1.97e5,3.12e5,3.75e5,13835
CG12780,1,1.73e5,1.58e5,1.72e5,2.09e5,14285
Gld (Glucose dehydrogenase),1,77255,1.17e5,94975,89115,7382
CG6933,1,1.21e5,1.32e5,54585,86145,9055
fln (flightin),1,1.10e5,1.14e5,53680,73250,7590
CG7611,1,1.53e5,1.62e5,1.03e5,93320,9805
zuc (zucchini),1,1.93e5,2.51e5,1.77e5,1.84e5,15615
spas (spastin),1,2.05e5,1.98e5,3.04e5,2.90e5,20360
kl-5 (retired record),1,1.04e5,1.03e5,1.02e5,1.19e5,10915
kl-5 (retired record),2,2.49e5,2.34e5,3.48e5,2.93e5,15125
kl-5 (retired record),3,2.17e5,1.72e5,3.34e5,2.63e5,14720
kl-5 (retired record),4,75030,75325,1.16e5,1.01e5,7795
CAP,1,1.68e5,2.38e5,1.74e5,2.10e5,16278
CAP,2,2.05e5,2.00e5,2.20e5,1.87e5,16600
CAP,3,1.91e5,1.77e5,1.89e5,1.82e5,14305
CAP,4,1.93e5,2.21e5,2.43e5,2.41e5,17450
CAP,5,2.17e5,2.10e5,2.82e5,2.58e5,19282
CG14820,1,2.08e5,1.39e5,1.68e5,1.69e5,12140
CG4615,1,98250,83675,1.01e5,78900,6582
CG4615,2,1.65e5,1.44e5,1.90e5,1.61e5,10755
Pkn (Protein kinase N),1,2.07e5,2.83e5,2.05e5,1.69e5,18825
Pkn (Protein kinase N),2,1.75e5,1.79e5,1.99e5,1.80e5,15220
l(1)sc (lethal of scute),1,1.62e5,1.49e5,2.36e5,2.25e5,12515
TwdlC (TweedleC),1,1.63e5,1.43e5,2.29e5,1.95e5,14420
Drl-2 (Derailed 2),1,1.52e5,2.00e5,2.04e5,1.94e5,15578
Drl-2 (Derailed 2),2,80540,83635,1.06e5,1.15e5,9135
Drl-2 (Derailed 2),3,1.02e5,83775,87130,90425,8890
ImpL2 (Ecdysone-inducible gene L2),1,1.66e5,1.47e5,1.18e5,54440,12410
PpN58A (Protein phosphatase N at 58A),1,2.17e5,2.06e5,1.73e5,1.89e5,17355
"Pp1-Y1 (Protein phosphatase 1, Y-linked 1)",1,2.45e5,1.85e5,2.96e5,2.83e5,14645
mtrm (matrimony),1,10365,9992,10470,3038,3250
Ugt37B1 (UDP-glycosyltransferase family 37 member B1),1,1.97e5 (active),1.71e5,2.05e5,2.03e5,9492
CG14610 + asRNA:CR42738,1,57505,76580,92200,64575,6885
CG6337,1,99080,1.09e5,1.43e5,1.34e5,10500
CG7963,1,91550,1.02e5,78970,62945,6615
ric8a,1,2.06e5,1.83e5,2.54e5,2.77e5,13730
Iyd (Iodotyrosine deiodinase),1,1.61e5,1.30e5,1.63e5,1.66e5,7435
Iyd (Iodotyrosine deiodinase),2,1.96e5,1.47e5,2.17e5,2.09e5,9820
CG17104,1,2.71e5,3.51e5,3.35e5,3.22e5,20545
CG11882,1,1.22e5,1.10e5,1.74e5,1.51e5,11455
Trf2 (TATA box binding protein-related factor 2),1,1.53e5 (active),2.12e5,5.02e5,5.23e5,14628
CG31102,1,1.38e5,1.16e5,1.66e5,1.52e5,11670
CycA (Cyclin A),1,59005,78595,73905,1.01e5,6278
CycA (Cyclin A),2,40480,28305,21165,12880,3055
Ugt302E1 (UDP-glycosyltransferase family 302 member E1),1,60520,52340,52850,38365,4425
ninaB (neither inactivation nor afterpotential B),1,2.01e5,2.07e5,2.13e5,2.24e5,16375
Nca (Neurocalcin),1,41630,33375,38190,32725,3300
CG1246,1,1.17e5,86955,2.02e5,1.19e5,6290

A few values from the list:
Entry of Pkn (Protein kinase N) #2 in “uninduced reporter light, run 1, well a”: 15220
For “uninduced reporter light, run 1, well a”, Pp1-Y1 (Protein phosphatase 1, Y-linked 1) reads 14645
ImpL2 (Ecdysone-inducible gene L2), control promoter light, run 1, well a: 1.18e5
CG31688, induced reporter light, run 1, well a → 62620
For “induced reporter light, run 1, well b”, CG4615 #2 is entered as 1.44e5
CAP #4, control promoter light, run 1, well a = 2.43e5
